In article PMC10238398 one finds binding data, which are given here for 4 substances.

Chains of the proteins cited; added tags and fusions are not shown.
UniProt P30051: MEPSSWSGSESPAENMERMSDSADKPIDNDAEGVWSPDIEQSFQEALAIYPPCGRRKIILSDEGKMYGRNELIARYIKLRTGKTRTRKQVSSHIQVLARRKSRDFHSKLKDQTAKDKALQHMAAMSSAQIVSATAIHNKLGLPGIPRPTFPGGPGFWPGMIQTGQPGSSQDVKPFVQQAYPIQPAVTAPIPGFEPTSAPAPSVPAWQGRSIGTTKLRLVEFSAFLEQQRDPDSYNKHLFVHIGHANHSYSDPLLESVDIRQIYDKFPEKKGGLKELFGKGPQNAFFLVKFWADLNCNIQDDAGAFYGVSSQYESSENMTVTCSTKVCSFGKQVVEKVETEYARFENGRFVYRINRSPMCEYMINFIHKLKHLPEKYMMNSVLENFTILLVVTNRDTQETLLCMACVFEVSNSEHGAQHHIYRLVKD
UniProt P48301: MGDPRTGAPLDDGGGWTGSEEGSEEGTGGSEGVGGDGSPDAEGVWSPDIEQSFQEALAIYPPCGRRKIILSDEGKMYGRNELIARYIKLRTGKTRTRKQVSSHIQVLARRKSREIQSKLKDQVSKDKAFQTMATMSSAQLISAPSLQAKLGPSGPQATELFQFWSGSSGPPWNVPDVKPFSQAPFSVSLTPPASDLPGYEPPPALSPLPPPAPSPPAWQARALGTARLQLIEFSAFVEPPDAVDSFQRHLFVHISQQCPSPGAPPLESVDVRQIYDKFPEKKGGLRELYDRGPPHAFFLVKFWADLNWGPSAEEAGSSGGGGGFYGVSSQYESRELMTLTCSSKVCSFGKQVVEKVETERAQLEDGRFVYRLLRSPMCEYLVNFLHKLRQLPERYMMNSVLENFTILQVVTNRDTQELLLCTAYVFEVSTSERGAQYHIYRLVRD
UniProt P70210: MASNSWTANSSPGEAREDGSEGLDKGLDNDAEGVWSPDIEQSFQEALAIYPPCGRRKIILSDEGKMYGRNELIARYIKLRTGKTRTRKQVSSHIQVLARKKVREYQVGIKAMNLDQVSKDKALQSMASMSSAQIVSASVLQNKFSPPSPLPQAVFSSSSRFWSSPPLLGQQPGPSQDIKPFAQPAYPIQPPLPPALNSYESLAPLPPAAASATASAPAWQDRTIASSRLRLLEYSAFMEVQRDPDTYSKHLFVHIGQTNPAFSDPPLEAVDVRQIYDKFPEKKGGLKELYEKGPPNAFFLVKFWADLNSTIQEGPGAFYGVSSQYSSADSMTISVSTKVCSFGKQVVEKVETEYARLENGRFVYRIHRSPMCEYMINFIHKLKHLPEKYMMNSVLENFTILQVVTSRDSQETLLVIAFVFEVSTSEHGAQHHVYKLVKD
UniProt Q62296: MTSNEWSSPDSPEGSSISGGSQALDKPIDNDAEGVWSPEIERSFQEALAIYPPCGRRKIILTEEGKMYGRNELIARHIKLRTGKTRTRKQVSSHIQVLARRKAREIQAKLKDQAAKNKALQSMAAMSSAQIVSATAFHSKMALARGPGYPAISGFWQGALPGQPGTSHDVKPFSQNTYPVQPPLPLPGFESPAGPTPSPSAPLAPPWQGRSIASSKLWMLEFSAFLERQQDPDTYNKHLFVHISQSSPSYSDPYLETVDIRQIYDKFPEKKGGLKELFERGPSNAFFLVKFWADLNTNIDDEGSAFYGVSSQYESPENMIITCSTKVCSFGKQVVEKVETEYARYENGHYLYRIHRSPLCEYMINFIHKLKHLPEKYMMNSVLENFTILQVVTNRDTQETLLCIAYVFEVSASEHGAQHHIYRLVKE

No constants are given. Whether binding was seen depends on the method and setting. Some entries that bind do so weakly or less than the wild type.

This test has as its target T1, myocardin-related transcription factor A (MRTF-A) (mouse (endogenous in primary murine renal fibroblasts)) (UniProt Q8K4J6).
T1 sequence: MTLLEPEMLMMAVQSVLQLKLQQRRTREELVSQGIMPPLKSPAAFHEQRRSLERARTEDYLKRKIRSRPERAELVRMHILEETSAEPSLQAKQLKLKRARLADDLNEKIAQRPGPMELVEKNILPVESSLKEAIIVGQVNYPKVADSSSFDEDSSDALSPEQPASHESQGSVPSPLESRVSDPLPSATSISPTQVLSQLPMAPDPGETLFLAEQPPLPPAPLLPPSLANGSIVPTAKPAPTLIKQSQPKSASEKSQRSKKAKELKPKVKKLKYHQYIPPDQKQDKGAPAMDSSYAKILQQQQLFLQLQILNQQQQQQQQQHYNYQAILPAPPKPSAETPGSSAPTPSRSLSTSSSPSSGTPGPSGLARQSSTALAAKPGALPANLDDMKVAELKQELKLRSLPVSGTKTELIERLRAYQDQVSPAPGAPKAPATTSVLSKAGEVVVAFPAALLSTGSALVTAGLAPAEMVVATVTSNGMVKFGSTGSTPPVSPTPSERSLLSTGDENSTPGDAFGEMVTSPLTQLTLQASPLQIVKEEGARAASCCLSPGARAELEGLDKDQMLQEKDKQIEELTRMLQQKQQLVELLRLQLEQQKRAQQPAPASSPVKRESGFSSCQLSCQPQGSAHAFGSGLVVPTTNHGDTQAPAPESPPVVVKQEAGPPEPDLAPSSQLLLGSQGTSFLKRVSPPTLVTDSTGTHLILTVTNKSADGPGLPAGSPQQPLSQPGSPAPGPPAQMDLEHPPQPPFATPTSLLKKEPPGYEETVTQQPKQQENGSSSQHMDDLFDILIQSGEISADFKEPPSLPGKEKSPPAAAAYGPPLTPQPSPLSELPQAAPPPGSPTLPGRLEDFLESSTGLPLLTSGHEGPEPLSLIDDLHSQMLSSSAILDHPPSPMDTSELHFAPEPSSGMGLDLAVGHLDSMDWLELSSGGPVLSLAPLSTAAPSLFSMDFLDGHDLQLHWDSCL
The test is described as follows: Re-ChIP; sequential chromatin immunoprecipitation with the indicated antibodies on formaldehyde cross-linked chromatin of primary renal fibroblasts treated with TGF-β (2 ng/ml) for 24 h; Zeb1 promoter read out.
Turning to “TEA domain transcription factor 1 (TEAD1) (from UniProt P30051 1-426)”, the binding entry is recorded as “binds”.
In the case of TEAD2 (from UniProt P48301 1-445), the binding entry is recorded as “no binding”.
With TEAD3 (from UniProt P70210 1-439) the entry was “no binding”; with TEAD4 (from UniProt Q62296 1-427), “no binding”.
